± gives the standard deviation of the averaged measurements. Values are relative to the signal before dosing, not to a vehicle control; the signal also falls without drug.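 Fibroblast labels name human fibroblasts: mostly primary ones from tissues such as uterus (C12385, HUF), lung (H6013), bone (Hs27A), adrenal (HADF) and skin (WS1), plus mammary HMF and breast cancer-associated Hs343T. The cancer cells are basal-like or mesenchymal-like triple-negative breast cancer lines. The paper calls a changed response a hit when it shifts by more than 3x the replicate standard deviation. The tissue of the other fibroblasts is not given here.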
Tested on: MDAMB468
Assay: relative JC-1 red fluorescence (viability) vs pre-drug, coculture with fibroblast (fraction); higher = more viable cancer cells
Details: 1 µM
Protocol: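 JC-1 labelled TNBC cells cocultured 1:1 (1,500 cells each) with CellTrace Violet stained primary or stromal fibroblasts in 384-well plates in FluoroBrite medium, treated with one of 42 anticancer drugs at 0.1, 1, 10 or 100 uM. JC-1 red fluorescence (mitochondrial integrity in cancer cells only) was read by plate reader every 8 h for 72 h. Values are normalised to each well's pre-drug value. The stock of one drug was tenfold lower, so its dose labels may be too high.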

Nc1ccn([C@@H]2O[C@H](CO)[C@@H](O)C2(F)F)c(=O)n1 [Gemcitabine]
relative JC-1 red fluorescence
Details	8 h	16 h	24 h	32 h	40 h
coculture fibroblast: C12385	0.8717 ± 0.0026	0.7679 ± 0.0045	0.7767 ± 0.0016	0.7256 ± 0.0036	0.6843 ± 0.0052
coculture fibroblast: H6013	0.8514 ± 0.0033	0.838 ± 0.032	0.776 ± 0.033	0.74 ± 0.041	0.708 ± 0.054
coculture fibroblast: H6019	0.829 ± 0.029	0.774 ± 0.025	0.712 ± 0.02	0.638 ± 0.025	0.583 ± 0.025
coculture fibroblast: H6076	0.9534 ± 0.0011	0.898 ± 0.026	0.818 ± 0.0085	0.804 ± 0.014	0.722 ± 0.015
coculture fibroblast: H6231	0.832 ± 0.029	0.902 ± 0.018	0.766 ± 0.044	0.762 ± 0.058	0.686 ± 0.054
coculture fibroblast: HADF	0.9317 ± 0.002	0.84 ± 0.021	0.805 ± 0.0086	0.7868 ± 0.0052	0.755 ± 0.036
coculture fibroblast: HCFa	0.834 ± 0.037	0.795 ± 0.043	0.741 ± 0.043	0.724 ± 0.057	0.671 ± 0.079
coculture fibroblast: HCPF	0.873 ± 0.015	0.882 ± 0.015	0.804 ± 0.035	0.807 ± 0.032	0.727 ± 0.038
coculture fibroblast: HHSteC	0.913 ± 0.0093	0.8321 ± 0.0017	0.7897 ± 0.006	0.7504 ± 0.0018	–
coculture fibroblast: HMF	0.849 ± 0.033	0.89103 ± 0.00075	0.798 ± 0.017	0.762 ± 0.047	–
coculture fibroblast: HPFa	0.904 ± 0.015	0.832 ± 0.012	0.778 ± 0.026	0.716 ± 0.035	–
coculture fibroblast: HUF	0.894 ± 0.013	0.803 ± 0.0095	0.7443 ± 0.0039	0.6785 ± 0.0037	–
coculture fibroblast: Hs5	0.812 ± 0.17	0.924 ± 0.022	0.856 ± 0.025	0.808 ± 0.053	–
coculture fibroblast: Hs27A	0.87 ± 0.012	0.8253 ± 0.00091	0.783 ± 0.0089	0.784 ± 0.014	–
coculture fibroblast: Hs343T	0.884 ± 0.024	0.925 ± 0.018	0.8466 ± 0.0053	0.804 ± 0.031	–
coculture fibroblast: WS1	0.877 ± 0.013	0.7778 ± 0.0017	0.731 ± 0.0079	0.654 ± 0.025	–

— the supplement of paper PMC6078165
